PubChem BioAssay AID686938, Drosophila RNAi Screening Center | 2013
Test: 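Looking for CRAC channel components and the factors controlling them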 (primary screen). Cell system: Drosophila S2R+ cells. Reagents: long dsRNA against Drosophila genes, about 0.25 µg dsRNA per well, roughly 10,000 cells. Time to read-out: 5 days of knock-down before the calcium assay. Treatment: thapsigargin (SERCA pump blocker) to empty calcium stores; entry signal taken 4 min after adding it. Measured: 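Duplicate raw fluo-4 intensities per well from a plate reader, at rest and four minutes after thapsigargin emptied calcium stores; entry-to-rest ratio filled for only some wells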. Scale: calcium entry signal: higher = stronger calcium signal after store depletion; resting calcium signal: higher = higher resting calcium signal. Rule for the call: 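Called when the plate z-score of the entry-to-rest ratio, mean of duplicates, falls below −3; wells with low overall dye signal (Fmax z below −2) or more than five off-targets excluded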. Calls: active = strongly reduced calcium entry; inactive = no strong reduction.
In all, the deposit lists about 23,000 reagents; shown is a random part of those with a known target gene and a result. In the full data, 75 (0.33%) were called active. 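Raw plate signals without normalisation; calls rest on plate z-scores that were not deposited; ratio present for only 364 wells.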 Unmarked entries are inactive. Reagents against one gene are numbered here. Names joined by + are all predicted targets of the reagent. No sequences are given here. Not stated in the record: the dose of the treatment.

| gene | reagent no. | calcium entry signal, replicate 1 (fluorescence units) | calcium entry signal, replicate 2 (fluorescence units) | resting calcium signal, replicate 1 (fluorescence units) | resting calcium signal, replicate 2 (fluorescence units) |
| --- | --- | --- | --- | --- | --- |
| Or85f | 1 | 2.71e7 | 2.51e7 | 1.37e7 | 1.38e7 |
| Gprk2 | 1 | 1.74e7 | 2.36e7 | 8.80e6 | 1.18e7 |
| Gprk2 | 2 | 3.48e7 | 4.03e7 | 1.80e7 | 1.71e7 |
| SecCl | 1 | 3.78e7 | 5.23e7 | 1.77e7 | 2.33e7 |
| CG32537 | 1 | 4.50e7 | 4.96e7 | 2.09e7 | 2.02e7 |
| Culd | 1 | 3.02e7 | 2.05e7 | 2.29e7 | 8.52e6 |
| CG1273 | 1 | 3.15e7 | 3.46e7 | 1.83e7 | 1.55e7 |
| CG3009 | 1 | 2.76e7 | 2.63e7 | 1.21e7 | 1.25e7 |
| Corin | 1 | 5.48e7 | 1.73e7 | 2.44e7 | 9.75e6 |
| GstD3 | 1 | 3.05e7 | 3.01e7 | 1.81e7 | 1.69e7 |
| BOD1 | 1 | 3.97e7 | 4.66e7 | 2.00e7 | 2.31e7 |
| GIIIspla2 | 1 | 2.18e7 | 3.08e7 | 1.13e7 | 1.59e7 |
| CG4455 | 1 | 3.30e7 | 3.31e7 | 1.58e7 | 1.67e7 |
| CG4455 | 2 | 3.78e7 | 3.21e7 | 2.33e7 | 1.51e7 |
| Ccp84Ab | 1 | 3.93e7 | 2.94e7 | 2.15e7 | 1.61e7 |
| CG6497 | 1 | 2.47e7 | 4.95e7 | 1.43e7 | 1.93e7 |
| CG6497 | 2 | 2.44e7 | 3.21e7 | 1.34e7 | 1.39e7 |
| CG31176 | 1 | 3.66e7 | 5.00e7 | 5.23e7 | 1.94e7 |
| CG31176 | 2 | 4.34e7 | 4.73e7 | 4.94e7 | 2.01e7 |

Copied from the list.
Value of Gprk2 #2 under “resting calcium signal, replicate 2 (fluorescence units)”: 1.71e7
Under “resting calcium signal, replicate 2 (fluorescence units)”, SecCl shows 2.33e7
Under “resting calcium signal, replicate 2 (fluorescence units)”, CG31176 #2 has 2.01e7
For “calcium entry signal, replicate 1 (fluorescence units)”, BOD1 has 3.97e7
For “resting calcium signal, replicate 2 (fluorescence units)”, Corin has 9.75e6
Result for CG31176 #1 in “calcium entry signal, replicate 2 (fluorescence units)”: 5.00e7

More results follow.
| gene | reagent no. | calcium entry signal, replicate 1 (fluorescence units) | calcium entry signal, replicate 2 (fluorescence units) | resting calcium signal, replicate 1 (fluorescence units) | resting calcium signal, replicate 2 (fluorescence units) |
| --- | --- | --- | --- | --- | --- |
| CG14974 | 1 | 3.00e7 | 4.32e7 | 1.53e7 | 1.94e7 |
| Acp26Ab | 1 | 3.78e7 | 3.30e7 | 1.81e7 | 1.51e7 |
| Rtf1 | 1 | 1.86e7 | – | 1.01e7 | – |
| mag | 1 | 3.55e7 | 3.92e7 | 1.66e7 | 2.69e7 |
| luna | 1 | 3.05e7 | 4.41e7 | 1.46e7 | 1.92e7 |
| luna | 2 | 2.91e7 | 4.50e7 | 1.76e7 | 2.76e7 |
| luna | 3 | 3.94e7 | 4.68e7 | 1.89e7 | 2.27e7 |
| yip7 | 1 | 2.42e7 | 5.41e7 | 1.18e7 | 2.31e7 |
| Cyp4e1 | 1 | 4.37e7 | 3.74e7 | 2.06e7 | 1.92e7 |
| CG5860 | 1 | 4.08e7 | 4.48e7 | 1.99e7 | 8.29e7 |
| RpS13 | 1 | 8.35e6 | – | 8.35e6 | – |
| bbc | 1 | 2.77e7 | 5.81e7 | 1.18e7 | 2.66e7 |
| bbc | 2 | 2.91e7 | 3.87e7 | 1.46e7 | 1.90e7 |
| CG10332 (retired record) + IM18 | 1 | 3.88e7 | 5.02e7 | 1.94e7 | 2.19e7 |
| IntS8 | 1 | 3.76e7 | 3.95e7 | 1.82e7 | 1.94e7 |
| Zcchc7 | 1 | 2.49e7 | 3.21e7 | 1.39e7 | 2.42e7 |
| IFT43 | 1 | 3.88e7 | – | 1.98e7 | – |
| eEF2 | 1 | 1.03e7 | 1.37e7 | 8.12e6 | 9.35e6 |
| Sgf11 | 1 | 3.67e7 | 4.53e7 | 1.86e7 | 1.98e7 |
| Clk | 1 | 3.01e7 | 4.65e7 | 1.52e7 | 2.17e7 |
| yellow-f | 1 | 2.03e7 | 2.80e7 | 1.05e7 | 4.70e7 |
| CG14298 | 1 | 2.98e7 | 3.56e7 | 3.50e7 | 1.41e7 |
| sno | 1 | 4.53e7 | 4.54e7 | 2.16e7 | 2.10e7 |
| CG8675 | 1 | 2.67e7 | 3.35e7 | 1.35e7 | 1.50e7 |
| Arp2 | 1 | 2.42e7 | 2.39e7 | 1.41e7 | 1.13e7 |
| bab1 | 1 | 6.18e7 | 2.00e7 | 3.91e7 | 1.01e7 |
| bab1 | 2 | 1.81e7 | 2.63e7 | 9.50e6 | 1.18e7 |
| bab1 | 3 | 2.80e7 | 5.02e7 | 1.33e7 | 2.24e7 |
| Vajk2 | 1 | 5.18e7 | 3.66e7 | 2.27e7 | 1.62e7 |
| Spt5 | 1 | 1.97e7 | 2.20e7 | 1.33e7 | 1.39e7 |
| Vmat | 1 | 2.52e7 | 3.09e7 | 1.12e7 | 1.47e7 |
| Vmat | 2 | 3.42e7 | 4.15e7 | 1.76e7 | 1.91e7 |
| Vmat | 3 | 3.60e7 | 5.59e7 | 1.77e7 | 3.23e7 |
| Dcr-1 | 1 | 4.47e7 | 3.97e7 | 2.02e7 | 1.79e7 |
| CG14325 | 1 | 1.88e7 | 2.05e7 | 1.22e7 | 3.19e7 |
| Pvf3 | 1 | 3.47e7 | 3.56e7 | 1.72e7 | 1.75e7 |
| Pvf3 | 2 | 3.80e7 | 3.45e7 | 1.94e7 | 1.74e7 |
| Pvf3 | 3 | 3.99e7 | 4.05e7 | 1.88e7 | 1.87e7 |
| Pvf3 | 4 | 4.13e7 | 3.53e7 | 2.00e7 | 1.65e7 |
